Among the data in ChEMBL document CHEMBL2407053, “Pharbinilic acid, an allogibberic acid from morning glory (Pharbitis nil)” (J Nat Prod, 2013) are IC50 values, retold here.

Each structure is given as a SMILES string.

The test system of the assay is A549. Briefly: Cytotoxicity against human A549 cells by sulforhodamine B assay. It is filed as functional, cell-based. (In general: In SRB staining, fixed cells bind dye roughly in proportion to their protein.)

A word on the IC50: it is the point on the concentration scale where inhibition reaches its midpoint. Read a high IC50 as weaker potency. Consider `COc1cccc2c1C(=O)c1c(O)c3c(c(O)c1C2=O)C[C@@](O)(C(=O)CO)C[C@@H]3O[C@H]1C[C@H](N)[C@H](O)[C@H](C)O1` [DOXORUBICIN], for which 20 nM corresponded to half-maximal inhibition (IC50).
